# Test results as given in US20240253023A1, “PERFLUORINATED AMIDE SALTS AND THEIR USES AS IONIC CONDUCTING MATERIALS” (priority 1996, published 2024).
# Test: chiral catalysis of the Diels Alder reaction of methylvinylketone with cyclopentadiene
# Settings: 200 μmoles catalyst, dichloromethane, 24 hours, room temperature; determined by RMN after chiral column
row,Compound,Enantiomeric Excesses
1,"O=S(=O)([N-]S(=O)(=O)C(F)(F)F)OC(c1ccccc1)C(F)(F)F.O=S(=O)([N-]S(=O)(=O)C(F)(F)F)OC(c1ccccc1)C(F)(F)F.O=S(=O)([N-]S(=O)(=O)C(F)(F)F)OC(c1ccccc1)C(F)(F)F.[La+3] (stereo not drawn) [LaPTETFSI, lanthanum salt of trifluoromethanesulfonyl(R(−)-1-phenyl-2,2-trifluoroethanoxysulfonyl)imide]",69%
2,"CC1(C)C2CCC1(CS(=O)(=O)[N-]S(=O)(=O)C(F)(F)C(F)(F)C(F)(F)C(F)(F)F)C(=O)C2.CC1(C)C2CCC1(CS(=O)(=O)[N-]S(=O)(=O)C(F)(F)C(F)(F)C(F)(F)C(F)(F)F)C(=O)C2.CC1(C)C2CCC1(CS(=O)(=O)[N-]S(=O)(=O)C(F)(F)C(F)(F)C(F)(F)C(F)(F)F)C(=O)C2.[La+3] [LaCSTFSI, lanthanum salt of (1R)-(−)-10-camphor-sulfonyl)perfluorobutanesulfonyl)imide]",76%
3,COCCCCN([C@H](C)C(C)C)S(=O)(=O)[N-]S(=O)(=O)C(F)(F)F.COCCCCN([C@H](C)C(C)C)S(=O)(=O)[N-]S(=O)(=O)C(F)(F)F.COCCCCN([C@H](C)C(C)C)S(=O)(=O)[N-]S(=O)(=O)C(F)(F)F.[La+3] [LaMBBMTFSI],72%
4,scandium salt of trifluoromethanesulfonyl (N-(1S)-(+)-ketopinic-acetyl-N-methylsulfonyl)imide [ScKANTFSI],67%
